Results published in the supplement of paper PMC11732987, “Enantioselective OTUD7B fragment discovery through chemoproteomics screening and high-throughput optimisation” (Communications Chemistry, 2025).
Some of the results follow. The data scatter; read single values as rough.

Chains of the proteins cited; added tags and fusions are not shown. Lines headed by an entry give the natural chain unless they say otherwise; changes in a name come on top. Residues count along the entry.
UniProt Q9BYP7: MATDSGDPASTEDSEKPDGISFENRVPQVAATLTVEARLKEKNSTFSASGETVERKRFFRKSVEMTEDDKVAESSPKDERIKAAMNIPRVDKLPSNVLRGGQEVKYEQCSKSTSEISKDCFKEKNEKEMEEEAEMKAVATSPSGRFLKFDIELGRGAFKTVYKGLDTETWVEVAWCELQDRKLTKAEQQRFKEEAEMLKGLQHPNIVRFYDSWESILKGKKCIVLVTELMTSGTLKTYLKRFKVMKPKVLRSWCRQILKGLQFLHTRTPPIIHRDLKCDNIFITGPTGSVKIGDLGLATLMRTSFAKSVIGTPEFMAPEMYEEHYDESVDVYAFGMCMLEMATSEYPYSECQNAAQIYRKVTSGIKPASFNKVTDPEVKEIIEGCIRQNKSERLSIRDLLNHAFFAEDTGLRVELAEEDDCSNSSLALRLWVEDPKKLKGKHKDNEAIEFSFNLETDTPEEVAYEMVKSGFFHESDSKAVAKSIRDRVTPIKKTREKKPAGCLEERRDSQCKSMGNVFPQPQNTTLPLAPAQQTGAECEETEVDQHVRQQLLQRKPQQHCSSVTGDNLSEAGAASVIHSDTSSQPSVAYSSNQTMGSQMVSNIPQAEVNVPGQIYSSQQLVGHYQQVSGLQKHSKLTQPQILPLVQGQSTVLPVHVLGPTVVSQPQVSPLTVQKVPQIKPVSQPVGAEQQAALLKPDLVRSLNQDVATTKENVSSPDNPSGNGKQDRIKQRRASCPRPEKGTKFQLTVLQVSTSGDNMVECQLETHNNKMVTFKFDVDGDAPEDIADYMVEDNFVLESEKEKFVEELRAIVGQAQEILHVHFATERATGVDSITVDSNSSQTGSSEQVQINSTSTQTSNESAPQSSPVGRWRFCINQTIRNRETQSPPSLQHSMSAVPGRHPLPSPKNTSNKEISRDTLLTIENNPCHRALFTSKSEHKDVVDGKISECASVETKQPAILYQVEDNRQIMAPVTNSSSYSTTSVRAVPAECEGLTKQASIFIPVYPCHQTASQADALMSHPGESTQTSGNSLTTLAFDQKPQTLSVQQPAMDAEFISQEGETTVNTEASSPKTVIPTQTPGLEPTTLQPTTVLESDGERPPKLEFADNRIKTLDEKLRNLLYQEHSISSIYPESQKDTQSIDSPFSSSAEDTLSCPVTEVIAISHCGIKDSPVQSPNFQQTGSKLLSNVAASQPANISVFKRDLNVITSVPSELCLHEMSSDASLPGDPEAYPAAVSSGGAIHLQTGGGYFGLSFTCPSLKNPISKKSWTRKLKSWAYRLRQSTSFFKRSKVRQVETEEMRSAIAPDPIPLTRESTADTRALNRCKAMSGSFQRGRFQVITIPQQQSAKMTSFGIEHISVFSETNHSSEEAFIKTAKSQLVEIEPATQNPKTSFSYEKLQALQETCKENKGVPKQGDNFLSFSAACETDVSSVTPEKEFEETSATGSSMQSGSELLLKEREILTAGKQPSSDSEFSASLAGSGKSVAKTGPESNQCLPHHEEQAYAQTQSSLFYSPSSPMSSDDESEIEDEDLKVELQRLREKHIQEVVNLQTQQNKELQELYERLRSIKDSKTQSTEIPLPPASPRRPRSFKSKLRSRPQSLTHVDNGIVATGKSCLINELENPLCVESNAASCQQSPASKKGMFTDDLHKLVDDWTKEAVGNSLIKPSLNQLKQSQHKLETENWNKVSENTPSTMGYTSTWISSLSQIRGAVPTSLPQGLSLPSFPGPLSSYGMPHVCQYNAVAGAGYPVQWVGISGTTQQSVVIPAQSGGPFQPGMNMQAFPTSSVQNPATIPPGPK
UniProt P27348: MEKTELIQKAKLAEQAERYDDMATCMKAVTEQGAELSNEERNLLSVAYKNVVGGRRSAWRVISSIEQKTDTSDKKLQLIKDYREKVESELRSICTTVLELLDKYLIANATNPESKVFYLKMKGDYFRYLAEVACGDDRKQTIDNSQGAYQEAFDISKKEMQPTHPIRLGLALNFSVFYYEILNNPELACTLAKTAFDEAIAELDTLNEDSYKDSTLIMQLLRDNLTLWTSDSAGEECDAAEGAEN
UniProt Q7Z5K2, 901-924: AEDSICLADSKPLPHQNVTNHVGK
UniProt Q04917: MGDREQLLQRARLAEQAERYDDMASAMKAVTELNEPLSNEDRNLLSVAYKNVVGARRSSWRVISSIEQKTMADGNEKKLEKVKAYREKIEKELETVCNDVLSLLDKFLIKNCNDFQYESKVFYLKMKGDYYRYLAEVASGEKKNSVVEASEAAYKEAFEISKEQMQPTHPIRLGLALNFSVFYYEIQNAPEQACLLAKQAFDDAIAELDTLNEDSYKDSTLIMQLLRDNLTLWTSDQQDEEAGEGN
UniProt Q96QU8: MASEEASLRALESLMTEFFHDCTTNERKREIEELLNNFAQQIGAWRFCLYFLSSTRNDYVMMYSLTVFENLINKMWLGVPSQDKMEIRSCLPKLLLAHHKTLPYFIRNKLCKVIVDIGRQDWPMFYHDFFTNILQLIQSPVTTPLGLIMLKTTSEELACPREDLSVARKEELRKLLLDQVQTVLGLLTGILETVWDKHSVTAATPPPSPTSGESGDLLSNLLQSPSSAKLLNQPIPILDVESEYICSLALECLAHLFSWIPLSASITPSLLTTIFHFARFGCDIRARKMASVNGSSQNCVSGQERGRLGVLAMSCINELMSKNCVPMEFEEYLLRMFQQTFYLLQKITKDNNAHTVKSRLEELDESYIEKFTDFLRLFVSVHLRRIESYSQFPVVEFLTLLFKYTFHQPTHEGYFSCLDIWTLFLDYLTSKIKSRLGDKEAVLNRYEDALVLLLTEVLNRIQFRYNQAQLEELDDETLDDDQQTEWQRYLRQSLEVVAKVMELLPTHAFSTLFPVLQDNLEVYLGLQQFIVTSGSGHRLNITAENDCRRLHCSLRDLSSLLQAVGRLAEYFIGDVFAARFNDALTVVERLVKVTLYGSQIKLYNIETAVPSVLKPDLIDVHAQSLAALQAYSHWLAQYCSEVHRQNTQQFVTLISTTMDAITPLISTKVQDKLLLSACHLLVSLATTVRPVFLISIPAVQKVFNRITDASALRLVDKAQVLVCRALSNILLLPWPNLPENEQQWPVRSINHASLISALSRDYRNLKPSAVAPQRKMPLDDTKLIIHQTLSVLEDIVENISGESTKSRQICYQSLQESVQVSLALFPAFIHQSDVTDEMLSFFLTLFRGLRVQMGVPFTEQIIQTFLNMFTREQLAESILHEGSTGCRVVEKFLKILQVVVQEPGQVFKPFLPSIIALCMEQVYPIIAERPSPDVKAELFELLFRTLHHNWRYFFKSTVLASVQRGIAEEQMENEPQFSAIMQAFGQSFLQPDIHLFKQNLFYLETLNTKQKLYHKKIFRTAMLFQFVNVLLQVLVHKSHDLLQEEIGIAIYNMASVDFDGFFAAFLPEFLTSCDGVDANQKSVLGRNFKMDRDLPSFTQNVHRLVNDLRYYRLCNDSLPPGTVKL
UniProt O75132: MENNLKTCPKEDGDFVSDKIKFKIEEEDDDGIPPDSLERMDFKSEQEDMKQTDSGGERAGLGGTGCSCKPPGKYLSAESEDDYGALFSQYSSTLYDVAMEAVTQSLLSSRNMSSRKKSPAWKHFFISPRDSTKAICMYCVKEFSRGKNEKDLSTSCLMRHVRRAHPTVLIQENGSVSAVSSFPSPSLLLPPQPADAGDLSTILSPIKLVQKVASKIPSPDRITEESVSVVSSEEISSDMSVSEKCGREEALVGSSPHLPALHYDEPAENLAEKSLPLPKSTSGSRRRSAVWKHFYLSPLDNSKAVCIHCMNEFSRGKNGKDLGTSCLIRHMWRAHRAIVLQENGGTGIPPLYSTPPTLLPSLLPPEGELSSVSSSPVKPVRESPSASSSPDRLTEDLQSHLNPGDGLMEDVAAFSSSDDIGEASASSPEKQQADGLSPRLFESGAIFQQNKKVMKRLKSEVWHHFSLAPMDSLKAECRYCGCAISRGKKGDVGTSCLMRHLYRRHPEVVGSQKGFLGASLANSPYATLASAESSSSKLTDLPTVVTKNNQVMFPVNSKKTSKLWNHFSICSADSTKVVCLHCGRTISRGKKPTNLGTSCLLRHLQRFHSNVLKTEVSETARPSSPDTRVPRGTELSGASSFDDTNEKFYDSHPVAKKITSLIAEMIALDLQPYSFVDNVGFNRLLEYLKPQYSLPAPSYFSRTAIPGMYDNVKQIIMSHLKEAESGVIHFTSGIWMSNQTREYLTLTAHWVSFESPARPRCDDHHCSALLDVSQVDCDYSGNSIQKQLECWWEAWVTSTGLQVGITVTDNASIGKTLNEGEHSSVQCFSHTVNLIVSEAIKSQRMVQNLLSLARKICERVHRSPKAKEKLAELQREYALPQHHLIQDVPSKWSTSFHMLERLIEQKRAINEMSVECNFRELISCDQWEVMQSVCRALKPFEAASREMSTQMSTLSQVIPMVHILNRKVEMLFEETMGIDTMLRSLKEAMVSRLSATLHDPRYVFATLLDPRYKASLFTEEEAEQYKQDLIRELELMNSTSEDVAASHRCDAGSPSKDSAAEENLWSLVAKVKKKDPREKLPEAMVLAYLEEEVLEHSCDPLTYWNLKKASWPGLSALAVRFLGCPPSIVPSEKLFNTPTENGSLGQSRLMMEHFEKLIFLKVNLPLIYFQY
UniProt Q99986, 220-240: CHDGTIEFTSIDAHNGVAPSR
UniProt O76024, 1-24: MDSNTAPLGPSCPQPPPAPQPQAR
UniProt Q9H6S0, 1255-1275: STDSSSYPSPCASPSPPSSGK
UniProt A3KMH1: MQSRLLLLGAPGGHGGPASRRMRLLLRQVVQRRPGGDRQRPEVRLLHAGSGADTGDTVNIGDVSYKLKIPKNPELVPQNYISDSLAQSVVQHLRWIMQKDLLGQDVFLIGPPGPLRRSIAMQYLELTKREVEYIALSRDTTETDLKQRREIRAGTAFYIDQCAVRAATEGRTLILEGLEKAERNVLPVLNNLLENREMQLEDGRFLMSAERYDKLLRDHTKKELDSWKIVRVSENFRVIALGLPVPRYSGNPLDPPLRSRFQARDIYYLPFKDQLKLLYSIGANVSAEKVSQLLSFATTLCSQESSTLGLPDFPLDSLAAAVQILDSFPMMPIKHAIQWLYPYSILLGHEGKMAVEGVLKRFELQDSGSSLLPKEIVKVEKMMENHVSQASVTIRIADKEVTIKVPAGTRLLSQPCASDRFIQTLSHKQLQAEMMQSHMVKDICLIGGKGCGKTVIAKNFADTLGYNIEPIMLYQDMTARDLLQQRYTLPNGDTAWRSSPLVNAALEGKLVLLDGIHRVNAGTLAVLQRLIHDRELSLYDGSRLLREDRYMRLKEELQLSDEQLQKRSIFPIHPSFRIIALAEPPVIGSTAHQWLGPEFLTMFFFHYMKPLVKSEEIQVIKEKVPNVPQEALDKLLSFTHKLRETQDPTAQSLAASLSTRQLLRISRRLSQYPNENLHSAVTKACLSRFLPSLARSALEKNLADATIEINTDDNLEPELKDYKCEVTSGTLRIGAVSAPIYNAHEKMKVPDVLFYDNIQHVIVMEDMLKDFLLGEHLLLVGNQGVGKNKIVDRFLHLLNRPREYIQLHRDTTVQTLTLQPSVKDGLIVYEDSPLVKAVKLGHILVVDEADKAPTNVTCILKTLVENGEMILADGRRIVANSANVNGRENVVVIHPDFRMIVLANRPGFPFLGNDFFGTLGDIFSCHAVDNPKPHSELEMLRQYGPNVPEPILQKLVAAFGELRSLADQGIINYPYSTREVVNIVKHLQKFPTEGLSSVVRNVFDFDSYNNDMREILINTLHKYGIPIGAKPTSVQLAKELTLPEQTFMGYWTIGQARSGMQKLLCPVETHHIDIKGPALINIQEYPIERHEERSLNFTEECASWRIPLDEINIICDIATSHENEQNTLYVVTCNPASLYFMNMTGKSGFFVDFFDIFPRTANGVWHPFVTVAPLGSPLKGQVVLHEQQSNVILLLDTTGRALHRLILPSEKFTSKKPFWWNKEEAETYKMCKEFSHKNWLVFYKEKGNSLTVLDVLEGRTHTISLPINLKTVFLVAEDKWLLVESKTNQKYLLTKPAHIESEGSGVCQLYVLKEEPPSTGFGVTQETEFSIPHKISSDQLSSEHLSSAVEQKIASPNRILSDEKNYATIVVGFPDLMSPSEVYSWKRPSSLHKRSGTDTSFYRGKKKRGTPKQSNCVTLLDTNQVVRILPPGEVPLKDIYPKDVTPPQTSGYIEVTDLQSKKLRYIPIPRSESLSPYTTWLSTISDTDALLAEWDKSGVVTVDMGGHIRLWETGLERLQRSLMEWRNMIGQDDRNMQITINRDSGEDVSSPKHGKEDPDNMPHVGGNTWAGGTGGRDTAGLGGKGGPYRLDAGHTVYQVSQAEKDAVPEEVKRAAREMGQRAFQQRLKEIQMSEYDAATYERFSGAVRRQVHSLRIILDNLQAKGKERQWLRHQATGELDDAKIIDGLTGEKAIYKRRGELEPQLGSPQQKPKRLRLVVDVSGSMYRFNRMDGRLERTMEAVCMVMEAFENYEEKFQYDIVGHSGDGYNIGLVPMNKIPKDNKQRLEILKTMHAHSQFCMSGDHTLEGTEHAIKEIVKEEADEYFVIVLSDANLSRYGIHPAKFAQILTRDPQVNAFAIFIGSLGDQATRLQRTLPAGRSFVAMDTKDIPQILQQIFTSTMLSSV

Columns and labels:
[1] = compound: ClCC(=O)N[C@@H]1CCCc2ccccc12; experiment: log2 mean competition ratio of IA-DTB cysteine labelling (DMSO/compound) (log2 ratio); higher = stronger cysteine engagement by compound; details: treatment time: 4 h, cell line lysate: HEK293T
Procedure: (§1)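 IA-DTB competitive cysteine chemoproteomics in HEK293T RIPA lysate. Lysates were treated with compound 29 or 30 at 50 or 200 µM for 4 h, then IA-DTB (500 µM, 1 h), trypsin-digested, NeutrAvidin-enriched and analysed by diaPASEF. Competition ratio = intensity DMSO / intensity compound (n=4 treated, n=64 DMSO); binding: mean log2 CR ≥ 1 and p ≤ 0.05 plus QC filters. Target is the cysteine site.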

[2] = compound: ClCC(=O)N[C@H]1CCCc2ccccc12; experiment: as above; details: treatment time: 4 h, cell line lysate: HEK293T
Procedure: as §1

Target | log2 mean competition ratio ([1]; 50 µM) | log2 mean competition ratio ([1]; 200 µM) | log2 mean competition ratio ([2]; 50 µM) | log2 mean competition ratio ([2]; 200 µM)
WNK3 C385 (UniProt Q9BYP7) | -0.095 | -0.387 | 0.355 | -0.199
YY1AP1 C734 (UniProt Q9H869) | 0.0225 | -0.116 | 0.282 | -0.4
WDR19 C846 (UniProt Q8NEZ3) | 0.0314 | 0.0162 | -0.0274 | 0.056
VPS51 C190 (UniProt Q9UID3) | 0.0212 | -0.225 | -0.0973 | -0.144
WDR53 C63 (UniProt Q7Z5U6) | -0.322 | -0.192 | -0.179 | -0.0933
YWHAQ C134 (UniProt P27348) | -0.163 | -0.173 | -0.0909 | -0.0411
WAPL C1190 (UniProt Q7Z5K2) | -0.144 | 0.0735 | -0.243 | 0.0407
WAC C15 (UniProt Q9BTA9) | -0.21 | 0.218 | -0.154 | 0.111
WDR59 C677 (UniProt Q6PJI9) | 0.236 | 0.431 | -0.374 | -0.179
WDR6 C26 (UniProt Q9NNW5) | 0.11 | -0.0254 | 0.0434 | 0.0297
WDHD1 C773 (UniProt O75717) | 0.578 | 0.225 | 0.993 | 0.298
WIZ C1279 (UniProt O95785) | 0.198 | -0.433 | 0.435 | -0.144
ZC3H12A C223 (UniProt Q5D1E8) | -0.329 | -0.2 |  | 0.112
WNK2 C411 (UniProt Q9Y3S1) | 0.348 | 0.0565 | 0.565 | 0.0837
WDR81 C1653 (UniProt Q562E7) | 0.241 | -0.406 | 0.224 | -0.109
YWHAH C112 (UniProt Q04917) | 0.0727 | -0.269 | -0.103 | -0.276
XPO6 C22 (UniProt Q96QU8) | -0.15 | 0.406 | -0.159 | -0.106
VPS53 C242 (UniProt Q5VIR6) | -0.188 | -0.186 | -0.294 | 0.0655
YJU2 C83 (UniProt Q9BW85) | 0.048 | -0.268 | -0.327 | -0.196
XPO5 C10 (UniProt Q9HAV4) | -0.144 | -0.549 | -0.145 | -0.196
VPS35 C286 | -0.223 | -0.244 | -0.202 | -0.217
XRCC1 C615 | -0.0733 | -0.187 | 0.0154 | -0.111
XPO6 C299 (UniProt Q96QU8) | -0.298 | 0.335 | -0.398 | 0.736
WDFY3 C1436 (UniProt Q8IZQ1) | -0.289 | -0.163 | 0.266 | -0.282
WNK2 C1635 (UniProt Q9Y3S1) | -0.228 | -0.177 | -0.0509 | -0.0966

Target | log2 mean competition ratio ([1]; 50 µM) | log2 mean competition ratio ([1]; 200 µM) | log2 mean competition ratio ([2]; 50 µM) | log2 mean competition ratio ([2]; 200 µM)
XPO5 C605 (UniProt Q9HAV4) | 0.136 | -0.111 | 0.219 | -0.22
VPS35L C315 (UniProt Q7Z3J2) | -0.0675 | -0.0864 | -0.137 | -0.0214
YTHDF3;YTHDF1 C439;(C412) | -0.0256 | -0.158 | -0.496 | -0.035
WLS C71 (UniProt Q5T9L3) | 0.0191 | -0.0137 | 0.171 | -0.0154
XPO7 C525 | -0.0356 | -0.583 | 0.592 | -0.249
WDR43 C380 (UniProt Q15061) | 0.0368 | -0.171 | 0.178 | 0.00926
WDR81 C207 (UniProt Q562E7) | -0.138 | 0.0692 | -0.121 | 0.23
VPS35L C20 (UniProt Q7Z3J2) | 0.423 | -0.0616 |  | -0.107
VSTM4 C219 | 0.0528 | -0.105 | -0.012 | -0.0782
WIPI2 C334 (UniProt Q9Y4P8) | 0.351 | -0.488 | -0.108 | -0.411
YARS1 C250 | 0.223 | -0.0363 | 0.0807 | -0.0551
WDR62 C647 (UniProt O43379) | -0.019 | 0.0711 | 0.156 | -0.0431
WDR19 C979 (UniProt Q8NEZ3) | 0.101 | -0.18 | -0.225 | -0.157
WDFY3 C3027 (UniProt Q8IZQ1) | -0.353 | -0.0757 | -0.0405 | -0.367
WEE1 C143 (UniProt P30291) | 0.281 | 0.202 | -0.00782 | 0.17
WDFY3 C1945 (UniProt Q8IZQ1) | -0.0938 | 0.00107 | -0.371 | -0.141
VSNL1 C187 | 0.317 | -0.91 | 0.401 | -0.207
WNK3 C927 (UniProt Q9BYP7) | -0.0936 | 0.122 | 0.32 | 0.0942
ZBTB1 C160 (UniProt Q9Y2K1) | 0.0721 | 0.1 | -0.149 | 0.0728
ZC3H11A C209 (UniProt O75152) | 0.243 | 0.314 | 0.143 | 0.379
XPC C60 (UniProt Q01831) | -0.0141 | -0.384 | 0.237 | -0.0691
YTHDF2 C433 (UniProt Q9Y5A9) | -0.0833 | -0.0663 | -0.48 | -0.0779
ZBED4 C326 (UniProt O75132) | 0.114 | 0.388 | 0.265 | 0.537
XPR1 C62 (UniProt Q9UBH6) | -0.102 | -0.0387 | -0.165 | -0.225
WDR36 C866 (UniProt Q8NI36) | 0.121 | -0.179 | 0.25 | -0.0503

2 entries from above, in CSV form.
Target,log2 mean competition ratio ([1]; 50 µM),log2 mean competition ratio ([1]; 200 µM),log2 mean competition ratio ([2]; 50 µM),log2 mean competition ratio ([2]; 200 µM)
YTHDF2 C433 (UniProt Q9Y5A9),-0.0833,-0.0663,-0.48,-0.0779
ZBED4 C326 (UniProt O75132),0.114,0.388,0.265,0.537

Four entries from above, with tabs:
Target	log2 mean competition ratio ([1]; 50 µM)	log2 mean competition ratio ([1]; 200 µM)	log2 mean competition ratio ([2]; 50 µM)	log2 mean competition ratio ([2]; 200 µM)
VPS35L C20 (UniProt Q7Z3J2)	0.423	-0.0616		-0.107
WDR62 C647 (UniProt O43379)	-0.019	0.0711	0.156	-0.0431
WDFY3 C3027 (UniProt Q8IZQ1)	-0.353	-0.0757	-0.0405	-0.367
WDR36 C866 (UniProt Q8NI36)	0.121	-0.179	0.25	-0.0503

Continued:

Target | log2 mean competition ratio ([1]; 50 µM) | log2 mean competition ratio ([1]; 200 µM) | log2 mean competition ratio ([2]; 50 µM) | log2 mean competition ratio ([2]; 200 µM)
XPO6 C886 (UniProt Q96QU8) | -0.129 | 0.427 | -0.173 | 0.358
WASHC2C C828 | 0.0104 | -0.0924 | -0.221 | -0.00983
XYLT1 C285 (UniProt Q86Y38) | -0.486 | -0.107 | -0.34 | -0.0745
XPR1 C188 (UniProt Q9UBH6) | 0.409 | 0.53 | 0.532 | 0.421
VRK1 C205 (UniProt Q99986) | 0.161 | -0.0627 | 0.15 | -0.141
XRCC1 C362 | 0.194 | -0.0792 | -0.0916 | -0.18
WNK2 C2062 (UniProt Q9Y3S1) | 0.142 | -0.046 | 0.277 | -0.0807
WFS1 C12 (UniProt O76024) | -0.422 | -0.0842 | 0.257 | -0.00298
VPS50 C218 (UniProt Q96JG6) | 0.276 | 0.417 | 0.19 | 0.0182
WDR81 C76 (UniProt Q562E7) | 0.0206 | 0.211 | -0.186 | 0.28
WDR41 C131 (UniProt Q9HAD4) | 0.243 | -0.331 | 0.0876 | -0.255
YWHAQ C25 (UniProt P27348) | -0.155 | -0.165 | -0.15 | 0.00057
WWOX C382 (UniProt Q9NZC7) | 0.0824 | -0.0213 | -0.0975 | 0.0648
WDR77 C26 (UniProt Q9BQA1) | -0.15 | -0.204 | 0.143 | -0.115
WWC2 C1061 (UniProt Q6AWC2) | 0.0431 | 0.246 | -0.0861 | 0.336
VTA1 C38 (UniProt Q9NP79) | -0.0171 | 0.321 | -0.15 | 0.144
WDR17 C399 | -0.431 | -0.126 | 0.00851 | 0.416
WDR1 C382 (UniProt O75083) | -0.431 | 0.612 | 0.0666 | -0.0845
WWC3 C158 | -0.15 | -0.00101 | -0.068 | 0.0642
WDR37 C8 (UniProt Q9Y2I8) | 0.147 | -0.198 | 0.206 | -0.211
ZBED4 C156 (UniProt O75132) | 0.378 | 0.0515 | 0.279 | 0.266
VRK1 C220 (UniProt Q99986) | -0.325 | 0.523 | -0.356 | 0.169
YES1 C248 (UniProt P07947) | -0.239 | 0.0938 | -0.465 | -0.0283
WRN C1115 (UniProt Q14191) | 0.506 | -0.118 | 0.359 | 0.0178
YTHDC2 C1265 (UniProt Q9H6S0) | -0.118 | 0.1 | -0.168 | -0.0101

Target | log2 mean competition ratio ([1]; 50 µM) | log2 mean competition ratio ([1]; 200 µM) | log2 mean competition ratio ([2]; 50 µM) | log2 mean competition ratio ([2]; 200 µM)
VPS52 C220 (UniProt Q8N1B4) | -0.0603 | 0.288 | -0.0362 | 0.223
YLPM1 C775 (UniProt P49750) | 0.345 | -0.469 | 0.382 | -0.287
ZC3H11A C431 (UniProt O75152) | -0.264 | -0.0941 | -0.186 | 0.0167
WDR76 C527 (UniProt Q9H967) | 0.141 | -0.165 | -0.163 | -0.186
WDR26 C238 | -0.0113 | -0.212 | 0.192 | -0.128
VPS35 C640 | -0.172 | 0.464 | -0.713 | 0.247
WDR7 C234 (UniProt Q9Y4E6) | -0.0344 | -0.358 | 0.487 | -0.215
VWA8 C444 (UniProt A3KMH1) | 0.0035 | 0.0508 | -0.306 | 0.109
XPO7 C43 | -0.115 | 0.0368 | -0.079 | 0.121
VWA8 C416 (UniProt A3KMH1) | -0.101 | 0.0225 | 0.404 | 0.0943
VWA8 C162 (UniProt A3KMH1) | 0.0287 | -0.0178 | -0.0809 | -0.157
YDJC C18 (UniProt A8MPS7) | -0.176 | 0.209 | 0.0966 | 0.0935
WDR41 C166 (UniProt Q9HAD4) | -0.166 | -0.000811 | 0.165 | -0.0712
WDR43 C315 (UniProt Q15061) | 0.0967 | -0.00183 | -0.0966 | -0.149
WNK3 C278 (UniProt Q9BYP7) | -0.133 | -0.144 | -0.0512 | -0.0785
WASF2 C27 (UniProt Q9Y6W5) | 0.244 | -0.0814 | 0.178 | -0.0903
WNK3 C949 (UniProt Q9BYP7) | 0.0521 | -0.00235 | -0.0775 | 0.0328
YWHAG C112 (UniProt P61981) | -0.0238 | -0.207 | -0.276 | -0.302
WDR4 C137 (UniProt P57081) | 0.487 | -0.158 | 0.246 | -0.3
WASL C431 (UniProt O00401) | 0.247 | 0.245 | 0.0358 | 0.0261
WAPL C906 (UniProt Q7Z5K2) | -0.0794 | 0.0571 | -0.519 | -0.209
XPO1 C119 (UniProt O14980) | -0.114 | -0.0869 | -0.154 | -0.102
WDR83 C23 (UniProt Q9BRX9) | 0.108 | -0.0534 | -0.0621 | 0.039
VPS8 C15 (UniProt Q8N3P4) | -0.38 | 0.026 | -0.3 | 0.058
